According to patent US11965201B2, “Arginine supplementation to improve efficiency in gas fermenting acetogens” (LanzaTech NZ, Inc., priority 2015, dated 2024):
Some results were stated once for a whole list of compounds, not compound by compound.

Tested on: C. autoethanogenum DSM10061
Assay: Amino acid consumption and production during heterotrophic growth (HPLC), compared to biomass requirement
Type: cell-based, Clostridium autoethanogenum
Settings: for uptake higher than needed for biomass synthesis: 12AA medium; for consumed at higher yields than needed for biomass synthesis: summary of Example 1

N[C@@H](CCC(=O)O)C(=O)O [glutamate]
uptake higher than needed for biomass synthesis: more than 120 fold | consumed at higher yields than needed for production of biomass (14AA 4x and 8AA 2x media): > 10 fold | consumed at higher yields than needed for production of biomass (20AA medium): > 20 fold | consumed at higher yields than needed for production of biomass (20AA medium, listed as GLU): more than 20 fold | consumed at higher yields than needed for biomass synthesis: > 80 fold

C[C@@H](O)[C@H](N)C(=O)O [threonine]
consumed at higher yields than needed for production of biomass (20AA medium): > 6 fold

N[C@@H](CO)C(=O)O [serine]
consumed at higher yields than needed for production of biomass (20AA medium): > 6 fold

N[C@@H](CC(=O)O)C(=O)O [aspartate]
uptake higher than needed for biomass synthesis: more than 120 fold | consumed at higher yields than needed for production of biomass (14AA 4x and 8AA 2x media): > 10 fold | consumed at higher yields than needed for production of biomass (20AA medium): > 20 fold | consumed at higher yields than needed for production of biomass (20AA medium, listed as ASP): more than 20 fold | consumed at higher yields than needed for biomass synthesis: > 80 fold
